Values from PubChem BioAssay AID1259254 (NCATS, 2017).
The deposit covers about 59,000 reagents; below is a part drawn at random. Over the whole deposit, about 1,550 (2.6%) are marked active. 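G2 share is only a proxy for re-replication; each gene was hit by three separate siRNAs, and active genes were retested.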 The raw values are shown without normalisation. Unmarked entries are inactive. The numbers tell different reagents against one gene apart. Not stated in the record: the amount of reagent.

Screen: 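Finding genes that stop cells copying their DNA twice in one cycle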 (primary screen)
Cell system: human HCT116 colorectal cancer cells
Knock-down reagent: single siRNA against human genes
Timing: 3 days
Measurement: 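Nuclei stained with Hoechst and imaged; cell-cycle phase assigned by DNA content; G2 share scaled per plate, non-targeting siRNA 0%, GMNN siRNA 100%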
Scale: G2 robust z-score and G2 cells, % of GMNN control: higher = more G2 cells, more excess DNA replication; raw share of cells in G2: higher = larger share of cells with G2 DNA content
Active means: 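An siRNA counts as active if its G2 robust z-score lies at least 5 MADs above the screen median; here such calls match roughly 38% of GMNN control or more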

The opening 5 records, ahead of the listing:
| Target gene | reagent no. | G2 robust z-score | G2 cells, % of GMNN control | raw share of cells in G2 (%) |
| --- | --- | --- | --- | --- |
| CYP4F22 | 1 | 7.02 (active) | 52.3 | 30 |
| CYP4F22 | 2 | -0.789 | -2.58 | 3.86 |
| CYP4F22 | 3 | 1.57 | 14 | 9.78 |
| SPTBN2 | 1 | 3.2 | 25.5 | 16.4 |
| SPTBN2 | 2 | 1.09 | 10.6 | 8.12 |

Results, repeating the preview:
| Target gene | reagent no. | G2 robust z-score | G2 cells, % of GMNN control | raw share of cells in G2 (%) |
| --- | --- | --- | --- | --- |
| CYP4F22 | 1 | 7.02 (active) | 52.3 | 30 |
| CYP4F22 | 2 | -0.789 | -2.58 | 3.86 |
| CYP4F22 | 3 | 1.57 | 14 | 9.78 |
| SPTBN2 | 1 | 3.2 | 25.5 | 16.4 |
| SPTBN2 | 2 | 1.09 | 10.6 | 8.12 |
| SPTBN2 | 3 | 3.61 | 28.4 | 13.4 |
| SPATA21 | 1 | -0.889 | -3.29 | 3.68 |
| SPATA21 | 2 | -0.447 | -0.179 | 4.22 |
| SPATA21 | 3 | -1.33 | -6.39 | 3.14 |
| GNPDA2 | 1 | 1.33 | 12.3 | 9.89 |
| GNPDA2 | 2 | -0.182 | 1.69 | 6.76 |
| GNPDA2 | 3 | 1.63 | 14.5 | 10 |
| GGT2P | 1 | -0.982 | -3.94 | 2.05 |
| GGT2P | 2 | -0.428 | -0.0435 | 3.58 |
| GGT2P | 3 | 2.02 | 17.2 | 8.93 |
| BFSP1 | 1 | -0.678 | -1.8 | 4.11 |
| BFSP1 | 2 | -1.07 | -4.59 | 3.44 |
| BFSP1 | 3 | 1.26 | 11.8 | 8.39 |
| SIRAL2 | 1 | -0.722 | -2.11 | 3.71 |
| SIRAL2 | 2 | -0.672 | -1.76 | 3.41 |
| SIRAL2 | 3 | -0.563 | -0.994 | 2.82 |
| PRKCZ | 1 | 0.286 | 4.98 | 7.25 |
| PRKCZ | 2 | -1.62 | -8.4 | 2.58 |
| PRKCZ | 3 | -0.37 | 0.365 | 4.15 |
| GRM4 | 1 | -1.38 | -6.74 | 3.43 |
| GRM4 | 2 | 1.04 | 10.3 | 8.11 |
| GRM4 | 3 | -0.593 | -1.2 | 2.9 |
| RPS2P8 | 1 | 5.48 (active) | 41.5 | 19.2 |
| RPS2P8 | 2 | 2.19 | 18.4 | 9.38 |
| RPS2P8 | 3 | -0.125 | 2.09 | 4.43 |
| CFAP92 | 1 | 0.865 | 9.06 | 7.92 |
| CFAP92 | 2 | 3.31 | 26.2 | 17 |
| CFAP92 | 3 | 1.36 | 12.5 | 7 |
| MTCL1 | 1 | 5.94 (active) | 44.7 | 22.5 |
| MTCL1 | 2 | -0.614 | -1.35 | 3.58 |
| MTCL1 | 3 | -0.816 | -2.77 | 2.14 |
| PGBDF | 1 | -1.31 | -6.22 | 1.74 |
| PGBDF | 2 | -0.189 | 1.64 | 3.42 |
| PGBDF | 3 | -0.691 | -1.89 | 2.41 |
| PI4K2B | 1 | -1.18 | -5.33 | 3.93 |
| PI4K2B | 2 | -0.616 | -1.37 | 4.69 |
| PI4K2B | 3 | -0.415 | 0.048 | 3.7 |
| ACAD11 | 1 | -0.957 | -3.76 | 3.39 |
| ACAD11 | 2 | -0.237 | 1.3 | 5.97 |
| ACAD11 | 3 | 0.0409 | 3.26 | 5.37 |
| HBG1 | 1 | -0.407 | 0.107 | 4.24 |
| HBG1 | 2 | 0.841 | 8.88 | 9.07 |
| HBG1 | 3 | 5.11 (active) | 38.9 | 19.2 |
